From paper PMC3509002 come the findings set out here.

Sequences of proteins named here, by UniProt entry; tags and fusion partners are left off. Residues count along the entry.
UniProt P27898, 9-116: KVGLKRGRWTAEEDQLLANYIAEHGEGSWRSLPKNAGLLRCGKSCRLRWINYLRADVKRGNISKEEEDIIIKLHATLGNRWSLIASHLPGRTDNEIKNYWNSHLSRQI

Construct, isoform or probe ends are uncertain for at least one entry.

This data set deals with P1-MYB (NHis6-P1MYB) (Zea mays) (UniProt P27898). Description: EMSA. Particulars: EMSA: 10 ng P1MYB with equimolar probe (~10^5 CPM), 30 min; protein stored in 10 mM Tris pH 7.5; recombinant protein; protein details: N-terminal His6; label: 32P 5' end on one primer strand; probe letters rebuilt from the primers and the genome. In general terms: Mobility shift assays separate free from complexed probe on a gel.

Take “ACCGTAAGGCCAACTCCAACAATGCCCCCCACTCCCCTACCCCATGTAAGGTGTGGTTTGGAGTAAAAACTCTCTCCAACAATCCCACAACCCACTC (double strand) [Zmf3'h1 promoter probe Pr1-1]”: the binding result is “binds”. On to “CCACTTGCGTGCTTCATCTAACAATCTAGCTGCTCCTCCTACCTACCCGCGATCTGGAATTTCGTACCTATTTATATTTTTCTTCGCGGGC (double strand) [Zmf3'h1 promoter probe Pr1-2]”, for which the binding result is reported as “binds”.
